Assay results taken from patent publication US20210198647A1, “Enhancers of Neurolysin Activity” (Texas Tech University System, priority 2018, published 2021).
Some entries share one result that the patent states for a list of compounds.

Experiment: In vitro metabolic stability in mouse plasma and brain homogenate
Settings: 500 ng/mL; 37° C.

## N[C@@H](Cc1c[nH]cn1)C(=O)NCc1cccc2ccccc12 [Compound 10c, (S)-2-amino-3-(1H-imidazol-4-yl)-N-(naphthalen-1-ylmethyl)propanamide]
  t1/2 Mouse Plasma: > 16.67 h
